Data reported in patent publication US8501446B2 (Vertex Pharmaceuticals Incorporated, priority 2004, dated 2013).
Structures were worked out from names or drawings and are uncertain.

Protein sequences, listed by entry. Tags and fused reporters are not part of them. Residues count along the entry.
UniProt Q13464, whole entry: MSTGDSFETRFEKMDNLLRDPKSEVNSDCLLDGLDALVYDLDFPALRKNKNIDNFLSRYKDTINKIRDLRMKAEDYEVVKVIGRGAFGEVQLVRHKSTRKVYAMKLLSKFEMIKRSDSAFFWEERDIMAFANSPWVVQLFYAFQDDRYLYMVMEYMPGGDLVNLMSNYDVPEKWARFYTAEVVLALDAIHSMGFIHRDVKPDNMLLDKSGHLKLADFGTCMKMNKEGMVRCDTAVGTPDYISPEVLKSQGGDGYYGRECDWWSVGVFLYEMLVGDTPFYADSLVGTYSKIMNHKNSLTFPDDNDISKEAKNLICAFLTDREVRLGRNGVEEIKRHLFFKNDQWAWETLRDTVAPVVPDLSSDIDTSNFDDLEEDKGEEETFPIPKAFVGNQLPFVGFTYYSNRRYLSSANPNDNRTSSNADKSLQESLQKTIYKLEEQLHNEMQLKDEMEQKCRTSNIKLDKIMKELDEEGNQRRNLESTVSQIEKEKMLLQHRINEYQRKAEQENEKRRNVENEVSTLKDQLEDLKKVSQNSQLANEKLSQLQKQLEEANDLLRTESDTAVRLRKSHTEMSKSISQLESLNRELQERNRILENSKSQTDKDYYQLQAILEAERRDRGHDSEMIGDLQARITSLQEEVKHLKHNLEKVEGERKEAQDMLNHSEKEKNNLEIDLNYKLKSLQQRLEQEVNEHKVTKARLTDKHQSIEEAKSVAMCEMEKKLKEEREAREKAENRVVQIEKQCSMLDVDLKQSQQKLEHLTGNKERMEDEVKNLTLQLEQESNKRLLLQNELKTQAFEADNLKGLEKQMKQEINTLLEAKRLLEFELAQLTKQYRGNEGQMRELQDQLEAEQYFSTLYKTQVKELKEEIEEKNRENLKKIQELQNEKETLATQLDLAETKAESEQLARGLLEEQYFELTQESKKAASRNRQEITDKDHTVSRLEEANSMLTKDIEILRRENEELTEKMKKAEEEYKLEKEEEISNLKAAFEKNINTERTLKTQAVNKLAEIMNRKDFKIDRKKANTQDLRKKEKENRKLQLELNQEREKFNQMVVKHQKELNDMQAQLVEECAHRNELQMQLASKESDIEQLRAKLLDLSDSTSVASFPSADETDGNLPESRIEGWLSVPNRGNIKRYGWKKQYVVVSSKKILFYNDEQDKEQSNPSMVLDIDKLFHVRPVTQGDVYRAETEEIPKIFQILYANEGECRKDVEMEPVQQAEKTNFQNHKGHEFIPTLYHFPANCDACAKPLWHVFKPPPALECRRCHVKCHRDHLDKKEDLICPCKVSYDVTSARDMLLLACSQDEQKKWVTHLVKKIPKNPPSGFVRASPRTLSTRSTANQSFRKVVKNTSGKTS
UniProt Q13464, 6-553 limits assumed: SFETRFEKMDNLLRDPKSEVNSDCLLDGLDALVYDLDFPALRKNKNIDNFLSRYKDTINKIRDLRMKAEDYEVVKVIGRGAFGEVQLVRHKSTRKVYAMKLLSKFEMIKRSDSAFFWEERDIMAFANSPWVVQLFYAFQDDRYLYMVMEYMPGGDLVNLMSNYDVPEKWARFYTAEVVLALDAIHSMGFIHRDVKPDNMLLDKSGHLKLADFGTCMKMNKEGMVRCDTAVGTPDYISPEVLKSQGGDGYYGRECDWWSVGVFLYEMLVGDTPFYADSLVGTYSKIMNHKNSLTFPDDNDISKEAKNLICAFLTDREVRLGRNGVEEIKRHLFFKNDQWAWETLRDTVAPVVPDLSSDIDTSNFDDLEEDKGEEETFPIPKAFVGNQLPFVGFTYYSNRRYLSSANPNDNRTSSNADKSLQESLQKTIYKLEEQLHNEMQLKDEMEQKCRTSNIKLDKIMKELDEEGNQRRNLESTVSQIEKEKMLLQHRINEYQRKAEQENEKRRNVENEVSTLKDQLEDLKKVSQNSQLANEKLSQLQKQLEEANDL
UniProt O60674, whole entry: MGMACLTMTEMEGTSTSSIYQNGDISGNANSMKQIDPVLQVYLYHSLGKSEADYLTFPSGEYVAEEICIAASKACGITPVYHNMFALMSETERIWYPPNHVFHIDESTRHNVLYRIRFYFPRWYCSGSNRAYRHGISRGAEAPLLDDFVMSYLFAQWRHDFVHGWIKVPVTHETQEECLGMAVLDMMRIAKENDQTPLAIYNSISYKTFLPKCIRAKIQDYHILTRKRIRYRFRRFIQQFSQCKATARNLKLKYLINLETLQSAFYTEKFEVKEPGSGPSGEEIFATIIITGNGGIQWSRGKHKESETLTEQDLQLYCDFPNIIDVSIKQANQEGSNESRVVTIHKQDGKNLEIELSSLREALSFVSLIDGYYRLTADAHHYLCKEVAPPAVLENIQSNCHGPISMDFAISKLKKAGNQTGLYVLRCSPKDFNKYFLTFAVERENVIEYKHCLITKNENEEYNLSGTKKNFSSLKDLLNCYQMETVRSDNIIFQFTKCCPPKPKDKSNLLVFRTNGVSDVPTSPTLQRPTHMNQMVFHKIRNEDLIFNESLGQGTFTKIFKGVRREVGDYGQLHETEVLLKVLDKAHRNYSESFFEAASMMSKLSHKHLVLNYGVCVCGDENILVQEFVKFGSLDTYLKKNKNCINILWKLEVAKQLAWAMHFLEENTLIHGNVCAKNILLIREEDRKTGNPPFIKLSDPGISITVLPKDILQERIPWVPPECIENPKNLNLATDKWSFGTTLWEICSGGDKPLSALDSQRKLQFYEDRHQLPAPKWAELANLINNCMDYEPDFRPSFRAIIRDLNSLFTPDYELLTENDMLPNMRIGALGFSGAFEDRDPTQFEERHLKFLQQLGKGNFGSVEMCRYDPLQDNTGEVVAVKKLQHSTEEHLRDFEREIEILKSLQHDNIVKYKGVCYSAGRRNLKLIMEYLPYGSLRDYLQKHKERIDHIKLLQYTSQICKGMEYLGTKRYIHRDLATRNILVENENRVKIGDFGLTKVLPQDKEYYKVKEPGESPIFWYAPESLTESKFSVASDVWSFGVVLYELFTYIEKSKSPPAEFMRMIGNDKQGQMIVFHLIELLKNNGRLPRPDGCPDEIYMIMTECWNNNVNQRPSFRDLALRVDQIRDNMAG
UniProt P52333, whole entry: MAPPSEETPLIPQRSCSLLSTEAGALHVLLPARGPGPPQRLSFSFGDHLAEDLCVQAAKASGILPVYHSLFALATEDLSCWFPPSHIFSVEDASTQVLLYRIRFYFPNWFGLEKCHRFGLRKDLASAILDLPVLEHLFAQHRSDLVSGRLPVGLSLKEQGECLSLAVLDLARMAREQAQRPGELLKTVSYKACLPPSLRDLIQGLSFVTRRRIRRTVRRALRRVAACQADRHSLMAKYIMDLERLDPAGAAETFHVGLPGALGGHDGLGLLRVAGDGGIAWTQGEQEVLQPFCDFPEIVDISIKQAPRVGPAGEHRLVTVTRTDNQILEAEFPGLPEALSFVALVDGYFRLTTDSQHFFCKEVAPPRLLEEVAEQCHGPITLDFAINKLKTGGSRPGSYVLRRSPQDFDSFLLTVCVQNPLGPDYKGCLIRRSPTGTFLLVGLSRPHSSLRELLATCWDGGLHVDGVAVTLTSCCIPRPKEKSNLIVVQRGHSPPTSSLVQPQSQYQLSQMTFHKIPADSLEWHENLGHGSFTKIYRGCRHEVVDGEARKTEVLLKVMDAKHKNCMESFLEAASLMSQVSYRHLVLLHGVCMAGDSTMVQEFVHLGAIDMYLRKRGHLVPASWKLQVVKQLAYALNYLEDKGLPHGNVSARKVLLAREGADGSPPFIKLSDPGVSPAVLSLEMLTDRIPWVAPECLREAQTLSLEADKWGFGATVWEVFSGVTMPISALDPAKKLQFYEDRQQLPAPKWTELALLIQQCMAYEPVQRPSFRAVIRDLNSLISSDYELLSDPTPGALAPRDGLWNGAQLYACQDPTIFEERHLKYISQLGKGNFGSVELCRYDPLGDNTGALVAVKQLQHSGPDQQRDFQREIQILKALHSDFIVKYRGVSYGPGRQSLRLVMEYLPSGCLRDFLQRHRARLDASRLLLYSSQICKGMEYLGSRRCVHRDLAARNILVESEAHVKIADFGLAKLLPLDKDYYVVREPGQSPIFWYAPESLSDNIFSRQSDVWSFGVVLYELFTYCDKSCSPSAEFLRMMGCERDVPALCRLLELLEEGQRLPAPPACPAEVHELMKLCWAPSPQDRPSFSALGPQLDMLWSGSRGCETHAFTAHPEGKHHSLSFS
UniProt O14965, whole entry: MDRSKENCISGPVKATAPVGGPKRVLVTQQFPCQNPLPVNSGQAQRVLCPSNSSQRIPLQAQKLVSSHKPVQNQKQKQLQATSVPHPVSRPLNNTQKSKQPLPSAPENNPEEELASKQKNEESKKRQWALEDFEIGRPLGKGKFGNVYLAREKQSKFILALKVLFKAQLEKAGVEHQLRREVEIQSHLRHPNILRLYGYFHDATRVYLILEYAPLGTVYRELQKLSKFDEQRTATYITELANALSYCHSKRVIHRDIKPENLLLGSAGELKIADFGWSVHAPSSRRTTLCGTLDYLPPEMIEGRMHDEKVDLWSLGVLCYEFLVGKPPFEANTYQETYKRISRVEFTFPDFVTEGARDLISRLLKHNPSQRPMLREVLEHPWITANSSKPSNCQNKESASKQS
UniProt Q9UQB9, whole entry: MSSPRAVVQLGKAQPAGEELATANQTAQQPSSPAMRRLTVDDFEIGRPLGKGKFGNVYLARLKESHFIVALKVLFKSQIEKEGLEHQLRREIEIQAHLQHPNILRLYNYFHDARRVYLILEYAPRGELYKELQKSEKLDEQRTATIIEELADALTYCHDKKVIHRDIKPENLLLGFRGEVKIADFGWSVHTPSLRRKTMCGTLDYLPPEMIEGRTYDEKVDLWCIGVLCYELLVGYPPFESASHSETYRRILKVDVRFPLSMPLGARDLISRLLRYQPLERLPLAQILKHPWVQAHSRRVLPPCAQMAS
UniProt Q96GD4, whole entry: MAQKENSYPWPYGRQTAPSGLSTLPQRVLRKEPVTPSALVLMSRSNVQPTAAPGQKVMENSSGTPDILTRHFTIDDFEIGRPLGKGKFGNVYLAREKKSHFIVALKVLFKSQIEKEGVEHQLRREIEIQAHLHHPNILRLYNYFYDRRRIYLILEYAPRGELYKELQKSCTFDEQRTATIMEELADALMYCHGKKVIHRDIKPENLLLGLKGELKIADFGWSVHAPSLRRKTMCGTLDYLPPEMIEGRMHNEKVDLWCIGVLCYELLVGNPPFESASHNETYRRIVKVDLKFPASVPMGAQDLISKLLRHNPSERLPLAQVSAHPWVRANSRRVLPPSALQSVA

How the values were obtained:
ROCK = ROCK (Homo sapiens, UniProt Q13464); assay: ROCK inhibition assay, standard radioactive enzyme assay ("33P"); type: biochemical; conditions: read-out: ROCK 33P Ki, Ki(app)
Method: Some compounds were screened for their ability to inhibit ROCK using a standard radioactive enzyme assay. Assays were carried out in a solution containing 100 mM HEPES (pH 7.5), 10 mM MgCl2, 25 mM NaCl, 2 mM DTT, and 1.5% DMSO. Final substrate concentrations in the assay were 13 μM [γ-^33P] ATP (25 mCi ^33P ATP/mmol ATP, Perkin Elmer, Cambridge, Mass./Sigma Chemicals, St Louis, Mo.) and 27 μM Myelin Basic Protein (MBP). Final enzyme concentration in the assay was 5 nM ROCK. Assays were carried out at room temperature. 1.5 μl of DMSO stock containing serial dilutions of the compound of the present invention (concentrations ranging from 10 μM to 2.6 nM) was placed in a 96 well plate. 50 μl of Solution 1 (100 mM HEPES (pH 7.5), 10 mM MgCl2, […]) was added to the plate. The reaction was initiated by addition of 50 μl of Solution 2 (100 mM HEPES (pH 7.5), 10 mM MgCl2, 4 mM DTT, […] and 10 nM ROCK). After 2 hours the reaction was quenched with 50 μL of 30% trichloroacetic acid (TCA, Fisher) containing 9 mM ATP. Transfer of 140 μL of the quenched reaction to a glass fiber filter plate (Corning, Cat. No. 3511) was followed by washing 3 times with 5% TCA. 50 μL of Optima Gold scintillation fluid (Perkin Elmer) was added and the plates were counted on a Top Count (Perkin Elmer). After removing mean background values for all of the data points the data was fit using Prism software to obtain a Ki(app).

JAK2 = JAK2 (Homo sapiens, UniProt O60674); assay: JAK2 inhibition assay (radioactive enzyme assay, as for JAK3); type: biochemical; conditions: read-out: JAK2 Ki; Ki(app); average Ki if more than one value determined
Method: (§1) Compounds were screened for their ability to inhibit JAK3 using a standard radioactive enzyme assay. 1.5 μL/well of a DMSO stock containing serial dilutions of a compound of the present invention (concentrations ranging from 667 μM to 46 nM) was placed in a 96 well polycarbonate plate. 50 μL per well of kinase buffer (100 mM HEPES (pH 7.4), 10 mM MgCl2, 25 mM NaCl, 1 mM DTT, and 0.01% bovine serum albumin (BSA)) containing 2 μM poly(Glu)4Tyr and 10 μM ATP was also added to the plate. To initiate the reaction, 50 μL kinase buffer containing 2 nM JAK3 enzyme was added. Final ATP concentration was 5 μM [γ-^33P] ATP (200 μCi ^33P ATP/μmol ATP (Perkin Elmer, Cambridge, Mass.). After 20 minutes at room temperature (25° C.), the reaction was stopped by adding 50 μL 20% trichloroacetic acid (TCA)/0.4 mM ATP to each well. The entire content of each well was then transferred to a 96 well glass fiber filter plate using a TomTek Cell Harvester. After washing, 60 μL scintillation fluid was added and ^33P incorporation detected using a Perkin Elmer TopCount. After removing mean background values for all of the data points the data was fit using Prism software to obtain a Ki(app). Inhibition of JAK2 was measured as above except that final poly(Glu)4Tyr concentration was 15 μM and final ATP concentration was 12 μM.

JAK3 = JAK3 (Homo sapiens, UniProt P52333); assay: JAK3 inhibition assay (standard radioactive enzyme assay); type: biochemical; conditions: read-out: JAK3 Ki; Ki(app); average Ki if more than one value determined
Method: as §1

[1] = target: full length Aurora-A (AA 1-403) (Homo sapiens, UniProt O14965); assay: Aurora-A inhibition assay, standard coupled enzyme system; type: biochemical; conditions: read-out: Aurora A Ki; average Ki if more than one value determined
Method: (§2) Compounds were screened for their ability to inhibit full length Aurora-A (AA 1-403) activity using a standard coupled enzyme system (Fox et al., Protein Sci. 7, pp. 2249 (1998)). Reactions were carried out in a solution containing 100 mM HEPES (pH 7.5), 10 mM MgCl2, 25 mM NaCl, 300 μM NADH, 1 mM DTT and 3% DMSO. Final substrate concentrations in the assay were 200 μM ATP (Sigma Chemicals, St Louis, Mo.) and 800 μM peptide (LRRASLG, American Peptide, Sunnyvale, Calif.). Reactions were carried out at 30° C. and 35 nM Aurora-A. Final concentrations of the components of the coupled enzyme system were 2.5 mM phosphoenolpyruvate, 200 μM NADH, 60 μg/ml pyruvate kinase and 20 μg/ml lactate dehydrogenase.
An assay stock buffer solution was prepared containing all of the reagents listed above with the exception of ATP and the test compound of interest. The assay stock buffer solution (60 μl) was incubated in a 96 well plate with 2 μl of the test compound of interest at final concentrations spanning 0.002 μM to 30 μM at 30° C. for 10 min. Typically, a 12 point titration was conducted by preparing serial dilutions (from 1 mM compound stocks) with DMSO of the test compounds in daughter plates. The reaction was initiated by the addition of 5 μl of ATP (final concentration 200 μM). Rates of reaction were obtained using a Molecular Devices Spectramax plate reader (Sunnyvale, Calif.) over 10 min at 30° C. The Ki values were determined from the rate data as a function of inhibitor concentration using computerized nonlinear regression (Prism 3.0, Graphpad Software, San Diego, Calif.). Aurora-C activity was screened in a similar manner using Aurora-C protein. Aurora-B activity was screened using a radioactive assay, such as described in Examples 1 and 2, but using Aurora-B protein.

Aurora-C = Aurora-C (Homo sapiens, UniProt Q9UQB9); assay: Aurora-C inhibition assay, coupled enzyme system as for Aurora-A; conditions: read-out: Aurora C Ki; average Ki if more than one value determined
Method: as §2
An assay stock buffer solution was prepared containing all of the reagents listed above with the exception of ATP and the test compound of interest. The assay stock buffer solution (60 μl) was incubated in a 96 well plate with 2 μl of the test compound of interest at final concentrations spanning 0.002 μM to 30 μM at 30° C. for 10 min. […] Rates of reaction were obtained using a Molecular Devices Spectramax plate reader (Sunnyvale, Calif.) over 10 min at 30° C. The Ki values were determined from the rate data as a function of inhibitor concentration using computerized nonlinear regression (Prism 3.0, Graphpad Software, San Diego, Calif.). […]

ROCK I (AA 6-553) = ROCK I (AA 6-553) (Homo sapiens, UniProt Q13464); assay: ROCK inhibition assay, standard coupled enzyme system ("Enzyme"); type: biochemical; conditions: read-out: ROCK Enzyme Ki; enzyme-linked assay
Method: Compounds were screened for their ability to inhibit ROCK I (AA 6-553) activity using a standard coupled enzyme system (Fox et al. (1998) Protein Sci. 7, 2249). Reactions were carried out in a solution containing 100 mM HEPES (pH 7.5), 10 mM MgCl2, 25 mM NaCl, 2 mM DTT and 1.5% DMSO. Final substrate concentrations in the assay were 45 μM ATP (Sigma Chemicals, St Louis, Mo.) and 200 μM peptide (American Peptide, Sunnyvale, Calif.). Reactions were carried out at 30° C. and 45 nM ROCK L. Final concentrations of the components of the coupled enzyme system were 2.5 mM phosphoenolpyruvate, 350 μM NADH, 30 μg/ml pyruvate kinase and 10 μg/ml lactate dehydrogenase.

Aurora-B = Aurora-B (Homo sapiens, UniProt Q96GD4); assay: Aurora-B inhibition assay, radioactive assay; conditions: read-out: Aurora B Ki, average Ki if more than one value determined

SMILES | Ki (ROCK) [nM] | Ki (JAK2) [nM] | Ki (JAK3) [nM] | Ki [1] [nM] | Ki (Aurora-C) [nM] | Ki (ROCK I (AA 6-553)) [nM] | Ki (Aurora-B) [nM]
C[C@@H]1CN(c2nccc(-c3c[nH]c4ncccc34)n2)C[C@H](C)N1 | < 500 | 500 to 5000 | < 500 | – | – | – | –
Clc1cc(-c2c[nH]c3ncccc23)ccn1 | < 500 | 500 to 5000 | 500 to 5000 | 500 to 5000 | – | – | –
COc1cc(-c2c[nH]c3ncccc23)ccc1O | < 500 | 500 to 5000 | 500 to 5000 | – | – | – | –
COc1cc(-c2c[nH]c3ncccc23)ccc1C#N | 500 to 5000 | 500 to 5000 | 500 to 5000 | – | – | – | –
COc1cc(N[C@@H](C)C(=O)NCCNS(C)(=O)=O)nc(-c2c[nH]c3ncc(Cl)cc23)n1 | – | – | – | < 500 | 500 to 5000 | 500 to 5000 | 500 to 5000
c1ccc(CNc2cc(-c3c[nH]c4ncc(-c5cccnc5)cc34)ncn2)cc1 | < 500 | < 500 | < 500 | – | – | – | –
COc1ccc(-c2c[nH]c3ncccc23)cc1-c1cnco1 | 500 to 5000 | 500 to 5000 | 500 to 5000 | – | – | – | –
c1ccc(CN2CCC(Nc3cc(-c4c[nH]c5ncccc45)ncn3)CC2)cc1 | 500 to 5000 | 500 to 5000 | > 5000 | – | – | – | –
COc1ccc(-c2c[nH]c3ncccc23)cc1OC | 500 to 5000 | > 5000 | 500 to 5000 | – | – | – | –
Nc1cc(-c2c[nH]c3ncccc23)ncn1 | < 500 | 500 to 5000 | 500 to 5000 | – | – | – | –
CC(=O)N1[C@H](C)CN(c2nccc(-c3c[nH]c4ncccc34)n2)C[C@@H]1C | < 500 | < 500 | < 500 | 500 to 5000 | – | – | –
COc1cc(-c2c[nH]c3ncccc23)ccc1C(N)=O [Compound 31, 2-Methoxy-4-(1H-pyrrolo[2,3-b]pyridin-3-yl)-benzamide] | < 500 | 500 to 5000 | < 500 | – | – | – | –
CN1CCCC(Oc2cc(-c3c[nH]c4ncccc34)ncn2)C1 (stereo not shown) | < 500 | 500 to 5000 | > 5000 | – | – | – | –
COc1ccc(-c2c[nH]c3ncccc23)cc1C(N)=O | 500 to 5000 | 500 to 5000 | 500 to 5000 | – | – | – | –
c1cnc2[nH]cc(-c3cc(NCC4CCOCC4)ncn3)c2c1 | 500 to 5000 | < 500 | 500 to 5000 | – | – | – | –
CCNc1cc(-c2c[nH]c3ncccc23)ncn1 | < 500 | 500 to 5000 | 500 to 5000 | – | – | – | –

Results, then the compound that gave them:

Ki (ROCK) [nM] | Ki (JAK2) [nM] | Ki (JAK3) [nM] | Ki [1] [nM] | Ki (Aurora-C) [nM] | Ki (ROCK I (AA 6-553)) [nM] | Ki (Aurora-B) [nM] | SMILES
500 to 5000 | < 500 | 500 to 5000 | 500 to 5000 | – | – | – | c1cnc2[nH]cc(-c3cc(-c4c[nH]c5ncccc45)ncn3)c2c1
< 500 | – | – | – | – | – | – | COc1cccc(CC(=O)Nc2cc(-c3c[nH]c4ncccc34)ncn2)c1
< 500 | – | – | 500 to 5000 | – | – | – | Fc1cccc(-c2cncnc2-c2c[nH]c3ncccc23)c1F
< 500 | < 500 | < 500 | < 500 | – | – | – | c1ccc(CNc2nccc(-c3c[nH]c4ncccc34)n2)cc1
500 to 5000 | 500 to 5000 | 500 to 5000 | – | – | – | – | c1ccc2c(c1)CCN(c1cc(-c3c[nH]c4ncccc34)ncn1)C2
500 to 5000 | 500 to 5000 | 500 to 5000 | – | – | – | – | NC(=O)c1cccc(-c2c[nH]c3ncccc23)c1
500 to 5000 | 500 to 5000 | < 500 | – | – | – | – | NC(=O)c1ccc(-c2c[nH]c3ncccc23)cc1
< 500 | – | – | < 500 | – | – | – | O=C(Cc1ccccc1F)Nc1nccc(-c2c[nH]c3ncccc23)n1
< 500 | < 500 | < 500 | 500 to 5000 | – | – | – | c1ccc(CNc2ccnc(-c3c[nH]c4ncccc34)n2)cc1 [Compound 11, Benzyl-[2-(1H-pyrrolo[2,3-b]pyridin-3-yl)-pyrimidin-4-yl]amine]
< 500 | – | – | 500 to 5000 | – | – | – | O=C(CCc1ccccc1)Nc1nccc(-c2c[nH]c3ncccc23)n1
500 to 5000 | < 500 | < 500 | < 500 | – | – | – | Fc1cccc(Nc2cc(-c3c[nH]c4ncccc34)ncn2)c1F
< 500 | 500 to 5000 | < 500 | 500 to 5000 | – | – | – | c1ccc(COc2cccc(-c3c[nH]c4ncccc34)c2)cc1
< 500 | < 500 | < 500 | 500 to 5000 | – | – | – | Clc1ccc(CNc2cc(-c3c[nH]c4ncccc34)ncn2)cc1
< 500 | 500 to 5000 | < 500 | – | – | – | – | c1ccc(Nc2cc(-c3c[nH]c4ncccc34)ncn2)cc1
